Source: PubChem BioAssay AID1159584 (Peter MacCallum Cancer Centre, 2016)

- Test: 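Genes whose loss is lethal only together with E-cadherin loss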 (primary screen)
- Cell system: human MCF10A breast epithelial cells, parental and CDH1-null
- Knock-down reagent: siRNA against human genes
- Detection: 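ATP luminescence (CellTiter-Glo) viability per line relative to mean mock wells over all plates, and the ratio of CDH1-null to parental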
- Scale: CDH1-null / parental viability ratio: higher = CDH1-null cells survive relatively better than parental; CDH1-null viability vs mock: higher = more viable CDH1-null cells; parental viability vs mock: higher = more viable parental cells
The deposit covers about 18,000 reagents; below is an unselected part. The numbers tell different reagents against one gene apart. Not given: the amount of reagent, the time to read-out.

no.	Gene	reagent no.	CDH1-null / parental viability ratio	CDH1-null viability vs mock (fraction of mock)	parental viability vs mock (fraction of mock)
1	PRUNE2	1	0.95	0.7	0.74
2	TMEM86B	1	0.66	0.69	1.05
3	TEFM	1	1.21	1.04	0.86
4	CHIT1	1	1	0.52	0.52
5	FITM1	1	1.03	0.62	0.6
6	NFATC4	1	1.15	0.94	0.82
7	GGT2P	1	1.02	1.04	1.02
8	SCD	1	1.21	0.94	0.78
9	ZNF777	1	0.79	0.38	0.48
10	ZNF460	1	0.9	0.72	0.8
11	DYNC1I2	1	0.9	0.7	0.78
12	CAMK2A	1	1.08	0.82	0.76
13	UNC5A	1	0.79	0.68	0.86
14	IKZF3	1	1.01	0.88	0.87
15	GPR21	1	1.44	1.04	0.72
16	ZNG1F	1	0.65	0.55	0.84
17	IRF8	1	1.23	0.79	0.64
18	CDC25A	1	1.48	0.86	0.58
19	SECISBP2	1	0.87	0.84	0.97
20	HPCAL1	1	1.3	0.86	0.66
21	H2BC14	1	1.06	0.87	0.82
22	GCGR	1	0.86	0.77	0.9
23	PRY	1	1.14	0.66	0.58
24	RASSF1	1	1.33	0.8	0.6
25	B3GLCT	1	1.24	0.94	0.76
26	GIPC3	1	1.24	1.04	0.84
27	ACAA2	1	0.8	0.75	0.94
28	NIPAL1	1	1.11	0.6	0.54
29	PRKG2	1	1.22	1.33	1.09
30	PAK1	1	0.92	0.7	0.76
31	ANXA13	1	1.01	0.83	0.82
32	UBE2E1	1	1.14	0.89	0.78
33	SNX33	1	1.06	0.88	0.83
34	ANKRD54	1	0.8	0.44	0.55
35	ZNF649	1	1.35	0.58	0.43
36	ENKUR	1	1.11	1	0.9
37	KRT74	1	0.84	0.94	1.12
38	MICAL2	1	1.06	0.74	0.7
39	MICAL2	2	0.99	0.92	0.93
40	MYOD1	1	0.93	0.98	1.05
41	SOX10	1	1.12	0.76	0.68
42	OR2AE1	1	0.84	0.81	0.96
43	ANXA11	1	1.03	0.65	0.63
44	ZNF383	1	0.91	0.71	0.78
45	SLC18A2	1	1.08	1.04	0.96
46	KIF1B	1	1.31	1.18	0.9
